# Test results taken from PubChem BioAssay AID2685 (National Center for Advancing Translational Sciences (NCATS), 2010).
# Values joined by “and” are separate entries in the source; they are usually repeats but may differ in a detail not shown here. Equal entries are not always repeated. This is one part of the list. These are further read-outs of the screen, such as a control signal, another cell line or another target. No call is given for them. Most of these compounds were active or inconclusive in the main read-out, so they are no random draw. Potencies come from curve fits of mixed quality, noted in brackets.
# Test: qHTS Assay for Lipid Storage Modulators in Drosophila S3 Cells;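 for cell number change: cells counted by Cell Tracker Red CMTPX staining in the red channel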
# Settings: BODIPY lipid droplet fluorescence, 18-24 h; for cell number change: measured here: cell count max response, cells fed with added oleic acid
# How it was run: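 Drosophila S3 cells got compounds at several concentrations plus oleic acid (400 uM solution). Laser-scanning cytometry with 488 nm excitation read lipid droplets at 500-530 nm and cells at 575-640 nm. Percent activity was relative to 20 uM Triacsin C.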
# [1] = measured here: lipid fluorescence (Fed channel) AC50, cells fed with added oleic acid
# [2] = measured here: cell number channel AC50, cells fed with added oleic acid
SMILES,cell number change,AC50 [1],AC50 [2]
COc1ccc(C(=O)NC2CCN(C(=O)Nc3ccccc3Cl)CC2)cc1,-0.552%,"0.82 µM [falling, full curve, poor fit]",–
COc1ccc(CSCC(=O)Nc2ccc(S(=O)(=O)N3CCCCCC3)cc2)cc1,-43.9%,"14.6 µM [falling, partial curve]","13 µM [falling, partial curve]"
COc1ccc(C(=O)Nc2nccs2)cc1[N+](=O)[O-],8.71%,"18.4 µM [rising, single point]",–
CCCn1c(N)c(N(CCOC)C(=O)CSc2cc(C)c3cccc(C)c3n2)c(=O)[nH]c1=O,-0.137%,"1.84 µM [rising, partial curve, poor fit]",–
COc1cc(OC)cc(C(=O)N[C@H](C(=O)Nc2ccc(NC(C)=O)cc2)C(C)C)c1,-32%,"13 µM [falling, partial curve]","29.1 µM [falling, single point]"
COCCn1c(=NC(=O)C2COc3ccccc3O2)sc2cc(S(N)(=O)=O)ccc21 (stereo not given),23.3%,"1.84 µM [rising, partial curve]",–
CC(=O)c1cccc(N=Cc2c(O)c3ccccc3oc2=O)c1,-0.552%,–,–
Cc1ccc(S(=O)(=O)N2[C@@H](c3cccc(Cl)c3)C(C(=O)O)=CC[C@H]2c2ccc(C(C)C)cc2)cc1,-25.2%,"29.1 µM [falling, single point]",–
Cc1cc(C)c2c(N)c(C(=O)N/N=C/c3cccnc3)sc2n1,-22.7%,–,–
Cc1ccc(C)c(NS(=O)(=O)c2ccc(OCC(=O)NCc3ccco3)cc2)c1,–,"6.51 µM [rising, partial curve, poor fit]","6.51 µM [rising, single point]"
O=C(/C=C/c1ccc([N+](=O)[O-])cc1)OCc1cnc(-c2ccccc2)o1,30.8%,"0.146 µM [rising, full curve, poor fit]","2.31 µM [rising, partial curve, poor fit]"
O=C(Nc1ccc2c(c1)OCO2)N1CCN(C/C=C/c2ccccc2)CC1,–,"3.66 µM [rising, partial curve]","4.61 µM [rising, single point]"
O=C(c1ccncc1)N1CCN(S(=O)(=O)c2cccc([N+](=O)[O-])c2)CC1,-15.5%,–,"6.51 µM [falling, single point]"
COc1ccc(CN(CC(=O)NCc2ccc(F)cc2)C(=O)CCC(=O)Nc2nccs2)cc1,67%,"11.6 µM [falling, single point]","20.6 µM [rising, partial curve]"
CCCCNC(=S)N(C)/N=C/c1ccc(F)cc1,-11.8%,"0.517 µM [falling, single point]",–
Cc1ccc(S(=O)(=O)C2CCOC2=O)cc1 (stereo not given),15.3%,"1.64 µM [rising, partial curve]",–
CC(=O)Nc1cccc(NC(=O)C2CCCN2C(=O)Nc2ccccc2C)c1 (stereo not given),-36.4%,"0.00651 µM [falling, full curve, poor fit]","32.6 µM [falling, single point]"
COc1ccc(Cn2nnnc2C(c2ccccc2OC)N2CCC(C(N)=O)CC2)cc1 (stereo not given),5.08%,–,–
C=CCC1(C(=O)NCCO)CCN(C(=O)OC(C)(C)C)CC1,-17.7%,"1.64 µM [falling, single point]",–
O=C(Cc1cccc2ccccc12)N/N=C/c1ccc(Sc2cccc3cccnc23)o1,-18.6%,"20.6 µM [falling, single point]",–
C=CCN1C(=O)C(Cc2ccc(OC)cc2)S/C1=N\N=C\c1cccs1 (stereo not given),2.57%,"2.31 µM [rising, single point]",–
CCOC(=O)c1sc(N(Cc2ccccc2)C(=O)COC(=O)c2ccccc2O)nc1C,11.4%,"4.61 µM [rising, partial curve, poor fit]",–
c1ccc(C2=Nn3c(nnc3-c3ccncc3)SC2)cc1,-3.22%,"0.411 µM [rising, full curve, poor fit]",–
Cc1cccc(-n2ncc3c(NC(C)C)ncnc32)c1,-71.2%,–,"4.61 µM [falling, partial curve]"
CC(Oc1ccccc1)C(=O)Nc1ccc(S(=O)(=O)N2CCCC2)cc1 (stereo not given),51.3%,"0.112 µM [rising, full curve, poor fit]","23.1 µM [rising, single point]"
CC(C)C(=O)Nc1cccc(-c2cnc3ccccc3n2)c1,–,"1.46 µM [rising, partial curve]","1.16 µM [rising, partial curve]"
Nc1c2ccccc2nc2ccccc12,-23.2% and -58.1%,"20.6 µM [falling, single point] and 6.51 µM [rising, single point]","18.4 µM [falling, single point]"

SMILES,cell number change,AC50 [1],AC50 [2]
Cc1ccc(NC(=O)c2nc[nH]c2C(=O)N[C@H](C)c2ccccc2)cc1,-66.9%,–,"20.6 µM [falling, single point]"
C/C=C/c1ccc(OCC(O)CN2CCCCCCC2)c(OC)c1 (stereo not given),-33.6%,"29.1 µM [falling, single point]","20.6 µM [falling, single point]"
Cc1ccc(NC(=O)C(CC(C)C)NC(N)=O)cc1 (stereo not given),-42.5%,"18.4 µM [rising, partial curve, poor fit]","29.1 µM [falling, single point]"
CC(=O)Nc1sc(-c2ccccc2)nc1-c1ccccc1,5.4%,"0.92 µM [falling, full curve]",–
CCOc1ccccc1N1CCN(C(=O)CCCN2C(=O)c3cccc4cccc(c34)C2=O)CC1,-11.3%,"18.4 µM [falling, single point]",–
O=C(COC(=O)CCC(=O)c1cccs1)NCc1ccco1,-179%,–,"29.1 µM [falling, single point]"
Cc1nn(-c2ccccc2)c2c1C(c1ccc([N+](=O)[O-])cc1)C(C#N)=C(N)O2 (stereo not given),19.7%,"13 µM [falling, partial curve]","0.651 µM [rising, full curve, poor fit]"
Cc1ccc(C)c(NS(=O)(=O)c2cc(C(N)=O)ccc2C)c1,–,"0.13 µM [rising, full curve, poor fit]","0.13 µM [rising, full curve, poor fit]"
CC1CCCCN1C(=O)CSc1nnc(-c2c[nH]c3ccccc23)o1 (stereo not given),15.7%,"0.184 µM [rising, full curve]","0.103 µM [rising, full curve, poor fit]"
Cc1ccc(NC(=O)c2sc3nc[nH]c(=O)c3c2C)c(C)c1,7.91%,"8.2 µM [falling, partial curve, poor fit]",–
CCOC(=O)C1CCCCN1Cc1ccc(F)cc1 (stereo not given),-92.2%,"0.731 µM [rising, full curve, poor fit]","32.6 µM [falling, partial curve]"
CCOc1ccc(NC(=O)CN2C(=O)COc3ccc(S(=O)(=O)N4CCCCC4)cc32)cc1,20.3%,"13 µM [rising, partial curve]",–
COCCCNC(=O)Cn1cnc2sc(C)c(S(=O)(=O)N3CC(C)CC(C)C3)c2c1=O (stereo not given),11.1%,–,–
N#C/C(=C(/O)Cc1ccccc1)P(=O)(c1ccccc1)c1ccccc1,27.7%,–,–
NC(=O)c1ccc(NC(=O)c2ccc(CN3CCOCC3)cc2)cc1,-35.9%,"29.1 µM [falling, single point]","3.66 µM [falling, full curve]"
O=C(Nc1ccccc1)c1ccccc1N=Cc1cccc(O)c1,-50.4%,"29.1 µM [falling, single point]","20.6 µM [falling, single point]"
S=C(c1ccc(-c2ccc(Br)cc2)o1)N1CCOCC1,-20.1%,–,–
Cc1cc(=O)oc2cc(OCC(=O)OCC(=O)Nc3ccccc3F)ccc12,-27.8%,"2.59 µM [falling, full curve, poor fit]","1.64 µM [falling, full curve, poor fit]"
CCOc1ccccc1NC(=O)NC1Cc2ccccc2C1,22.2%,"29.1 µM [rising, single point]",–
Cc1nc(-c2ccc(F)cc2)c(CC(=O)N(C)CC(=O)Nc2ccccc2Br)s1,0.223%,–,–
CCCCCN(C(=O)CCC(=O)OCc1cc(C)ccc1C)c1c(N)n(CCCC)c(=O)[nH]c1=O,-5.77%,"0.206 µM [falling, full curve, poor fit]",–
O=C(COC(=O)c1ccccc1C(=O)N1CCN(c2ccccc2)CC1)NCc1ccccc1,18.2%,"0.103 µM [falling, full curve, poor fit]","0.092 µM [falling, full curve, poor fit]"
CCOc1ccc(CCNC(=O)CCn2ccc3cc(S(=O)(=O)N4CCCC4)ccc32)cc1,10.4%,"2.59 µM [rising, single point]",–
Cc1cc(O)c(-c2cc(C(=O)NCc3ccc4c(c3)OCO4)[nH]n2)cc1C,-25.8%,"29.1 µM [rising, single point]",–
COc1ccccc1-c1nnc2sc(-c3cc4ccccc4o3)nn12,–,"0.058 µM [rising, full curve, poor fit]",–
CCc1ccc(CNC(=O)CCS(=O)(=O)Cc2ccc(C)cc2)cc1,–,"29.1 µM [rising, single point]",–
CCn1cc(C(=O)N2CCN(c3ccc(OC)cc3)CC2)c(=O)c2cc(S(=O)(=O)N3CCOCC3)ccc21,4.59%,"4.61 µM [rising, single point]",–

# Only AC50 [2] and AC50 [1] (two entries from above):
SMILES | AC50 [2] | AC50 [1]
Cc1cc(O)c(-c2cc(C(=O)NCc3ccc4c(c3)OCO4)[nH]n2)cc1C | – | 29.1 µM [rising, single point]
COc1ccccc1-c1nnc2sc(-c3cc4ccccc4o3)nn12 | – | 0.058 µM [rising, full curve, poor fit]
